# Some of the results follow.
# Experiments:
# Experiment in all cases: glycan array binding signal (z-score within array); higher = stronger binding
# Details in all cases: glycan notation: IUPAC condensed, linker removed
# Gal(b1-4)Glc6S = target: Gal(b1-4)Glc6S
# How it was run: (§1)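 Glycan array data came from 3228 arrays in the Consortium for Functional Glycomics database, and only arrays with an available protein sequence were kept. Glycan names were put into IUPAC-condensed notation, and columns mapping to the same glycan were averaged. The binding signal is a within-array Z-score, averaged across arrays of one protein sequence run at different concentrations or buffers and across linkers. A negative Z-score can be read as non-binding.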
# Gal(b1-4)GlcNAc = target: Gal(b1-4)GlcNAc
# How it was run: as §1
# [1] = target: Gal(b1-4)GlcNAc(a1-6)Gal(b1-4)GlcNAc
# How it was run: as §1
# Gal(b1-4)GlcNAc(b1-2)Man = target: Gal(b1-4)GlcNAc(b1-2)Man
# How it was run: as §1
# [2] = target: Gal(b1-4)GlcNAc(b1-2)Man(a1-3)Man(b1-4)GlcNAc(b1-4)GlcNAc
# How it was run: as §1
# [3] = target: Gal(b1-4)GlcNAc(b1-2)Man(a1-3)[Gal(b1-4)GlcNAc(b1-2)Man(a1-6)]Man(b1-4)GlcNAc(b1-4)GlcNAc
# How it was run: as §1
# [4] = target: Gal(b1-4)GlcNAc(b1-2)Man(a1-3)[Gal(b1-4)GlcNAc(b1-2)Man(a1-6)]Man(b1-4)GlcNAc(b1-4)[Fuc(a1-6)]GlcNAc
# How it was run: as §1
# [5] = target: Gal(b1-4)GlcNAc(b1-2)Man(a1-3)[Gal(b1-4)GlcNAc(b1-2)Man(a1-6)][Gal(b1-4)GlcNAc(b1-4)]Man(b1-4)GlcNAc(b1-4)[Fuc(a1-6)]GlcNAc
# How it was run: as §1
# [6] = target: Gal(b1-4)GlcNAc(b1-2)Man(a1-3)[Gal(b1-4)GlcNAc(b1-2)Man(a1-6)][GlcNAc(b1-4)]Man(b1-4)GlcNAc(b1-4)[Fuc(a1-6)]GlcNAc
# How it was run: as §1
# [7] = target: Gal(b1-4)GlcNAc(b1-2)Man(a1-3)[GlcNAc(b1-2)Man(a1-6)]Man(b1-4)GlcNAc(b1-4)GlcNAc
# How it was run: as §1
# [8] = target: Gal(b1-4)GlcNAc(b1-2)Man(a1-3)[GlcNAc(b1-4)][Gal(b1-4)GlcNAc(b1-2)Man(a1-6)]Man(b1-4)GlcNAc(b1-4)GlcNAc
# How it was run: as §1
# [9] = target: Gal(b1-4)GlcNAc(b1-2)Man(a1-3)[Man(a1-6)]Man(b1-4)GlcNAc(b1-4)GlcNAc
# How it was run: as §1
# [10] = target: Gal(b1-4)GlcNAc(b1-2)Man(a1-6)Man(b1-4)GlcNAc(b1-4)GlcNAc
# How it was run: as §1
# [11] = target: Gal(b1-4)GlcNAc(b1-2)Man(a1-6)[GlcNAc(b1-2)Man(a1-3)]Man(b1-4)GlcNAc(b1-4)GlcNAc
# How it was run: as §1
# [12] = target: Gal(b1-4)GlcNAc(b1-2)Man(a1-6)[Man(a1-3)]Man(b1-4)GlcNAc(b1-4)GlcNAc
# How it was run: as §1
# [13] = target: Gal(b1-4)GlcNAc(b1-2)[Gal(b1-4)GlcNAc(b1-4)]Man(a1-3)[Gal(b1-4)GlcNAc(b1-2)Man(a1-6)]Man(b1-4)GlcNAc(b1-4)GlcNAc
# How it was run: as §1
# [14] = target: Gal(b1-4)GlcNAc(b1-2)[Gal(b1-4)GlcNAc(b1-4)]Man(a1-3)[Gal(b1-4)GlcNAc(b1-2)[Gal(b1-4)GlcNAc(b1-6)]Man(a1-6)]Man(b1-4)GlcNAc(b1-4)GlcNAc
# How it was run: as §1
# [15] = target: Gal(b1-4)GlcNAc(b1-2)[Gal(b1-4)GlcNAc(b1-4)]Man(a1-3)[GlcNAc(b1-4)][Gal(b1-4)GlcNAc(b1-2)Man(a1-6)]Man(b1-4)GlcNAc(b1-4)GlcNAc
# How it was run: as §1
# [16] = target: Gal(b1-4)GlcNAc(b1-2)[Gal(b1-4)GlcNAc(b1-4)]Man(a1-3)[GlcNAc(b1-4)][Gal(b1-4)GlcNAc(b1-2)[Gal(b1-4)GlcNAc(b1-6)]Man(a1-6)]Man(b1-4)GlcNAc(b1-4)GlcNAc
# How it was run: as §1
# [17] = target: Gal(b1-4)GlcNAc(b1-2)[Gal(b1-4)GlcNAc(b1-6)]Man(a1-6)[Gal(b1-4)GlcNAc(b1-2)Man(a1-3)]Man(b1-4)GlcNAc(b1-4)GlcNAc
# How it was run: as §1
# [18] = target: Gal(b1-4)GlcNAc(b1-2)[Gal(b1-4)GlcNAc(b1-6)]Man(a1-6)[Gal(b1-4)GlcNAc(b1-2)Man(a1-3)]Man(b1-4)GlcNAc(b1-4)[Fuc(a1-6)]GlcNAc
# How it was run: as §1
# [19] = target: Gal(b1-4)GlcNAc(b1-2)[Gal(b1-4)GlcNAc(b1-6)]Man(a1-6)[GlcNAc(b1-4)][Gal(b1-4)GlcNAc(b1-2)Man(a1-3)]Man(b1-4)GlcNAc(b1-4)GlcNAc
# How it was run: as §1
# [20] = target: Gal(b1-4)GlcNAc(b1-2)[Gal(b1-4)GlcNAc(b1-6)]Man(a1-6)[GlcNAc(b1-4)][Gal(b1-4)GlcNAc(b1-2)[Gal(b1-4)GlcNAc(b1-4)]Man(a1-3)]Man(b1-4)GlcNAc(b1-4)[Fuc(a1-6)]GlcNAc
# How it was run: as §1
# [21] = target: Gal(b1-4)GlcNAc(b1-3)Gal(b1-3)GalNAc
# How it was run: as §1
# [22] = target: Gal(b1-4)GlcNAc(b1-3)Gal(b1-3)GlcNAc
# How it was run: as §1
# [23] = target: Gal(b1-4)GlcNAc(b1-3)Gal(b1-4)Glc
# How it was run: as §1
# [24] = target: Gal(b1-4)GlcNAc(b1-3)Gal(b1-4)GlcNAc
# How it was run: as §1
# [25] = target: Gal(b1-4)GlcNAc(b1-3)Gal(b1-4)GlcNAc(b1-2)Man(a1-3)[Gal(b1-4)GlcNAc(b1-3)Gal(b1-4)GlcNAc(b1-2)Man(a1-6)]Man(b1-4)GlcNAc(b1-4)GlcNAc
# How it was run: as §1
# [26] = target: Gal(b1-4)GlcNAc(b1-3)Gal(b1-4)GlcNAc(b1-2)Man(a1-3)[Gal(b1-4)GlcNAc(b1-3)Gal(b1-4)GlcNAc(b1-2)Man(a1-6)]Man(b1-4)GlcNAc(b1-4)[Fuc(a1-6)]GlcNAc
# How it was run: as §1
# [27] = target: Gal(b1-4)GlcNAc(b1-3)Gal(b1-4)GlcNAc(b1-2)[Gal(b1-4)GlcNAc(b1-3)Gal(b1-4)GlcNAc(b1-6)]Man(a1-6)[Gal(b1-4)GlcNAc(b1-3)Gal(b1-4)GlcNAc(b1-2)Man(a1-3)]Man(b1-4)GlcNAc(b1-4)GlcNAc
# How it was run: as §1
binder,measurement,setting,value
Blon0732mut (Bifidobacterium longum) (protein) MPTSEHKADDATRHLTLIPAPVTLEYTHGTALIGPLVTIEDADQSWETLPIEQLSDELRHRYGVTVLRRRTHGTVISLGLDSRLAHDEYTLDVSESEGIRVRGGGESGLRYGLQTLRQIIGQTSRAIPCLHIQDKPAFAVRAYSLDVTRGRVPTMEFLTWFVDQLALYKYNQFQLYVEHAFAFVELSEAWRGTDPLTAADITYLDEYCARRGIELVPSLATFGHMYMNLRTREHRGLGEFPEDADRPFSFIERMEHHTLNAADPKAHDFASRLIEEYAPLFRSKSFNIGGNETFDLGRGRSAQDAPEAGRDELYAGFVRDLCETLARHGRQPMLWADIALESPRTMDLLPGDITMLNWMYEPQIDESKIQTIATQGRRQFVCPAVRAWSRFFPDYAGAWLNTYHMALAGTKYDAEGMVVTDWGDYGHVNDPRLSVPGLCYGAQNAWNPIEIDAHEMNRRISALVYGDESGRIMDCLARIDSDGVSFPWDLAVQVLELEYGSGTGALNMDVAACMERSSGGKLTLDRTLGCDDARRRMLQWNRERIERRRDCDQVLRDCGDAFAGLDKGGLTAEFLSVMLDGQRLFNELGEELLALADGKDVGSGANRLAADLELWFERYRAQWLSVGRHAELARIAHVVWSLADILRRGAL,glycan array binding signal (z-score),Gal(b1-4)Glc6S,0.254
same,glycan array binding signal (z-score),Gal(b1-4)GlcNAc,-0.184
same,glycan array binding signal (z-score),[1],-1.16
same,glycan array binding signal (z-score),Gal(b1-4)GlcNAc(b1-2)Man,1.31
same,glycan array binding signal (z-score),[2],-0.539
same,glycan array binding signal (z-score),[3],0.239
same,glycan array binding signal (z-score),[4],1.37
same,glycan array binding signal (z-score),[5],0.302
same,glycan array binding signal (z-score),[6],-1.12
same,glycan array binding signal (z-score),[7],-0.879
same,glycan array binding signal (z-score),[8],-0.773
same,glycan array binding signal (z-score),[9],-0.218
same,glycan array binding signal (z-score),[10],0.871
same,glycan array binding signal (z-score),[11],-0.3
same,glycan array binding signal (z-score),[12],-0.769
same,glycan array binding signal (z-score),[13],-0.808
same,glycan array binding signal (z-score),[14],-0.73
same,glycan array binding signal (z-score),[15],0.021
same,glycan array binding signal (z-score),[16],-0.049
same,glycan array binding signal (z-score),[17],0.095
same,glycan array binding signal (z-score),[18],-0.962
same,glycan array binding signal (z-score),[19],-0.525
same,glycan array binding signal (z-score),[20],0.039
same,glycan array binding signal (z-score),[21],0.565
same,glycan array binding signal (z-score),[22],-0.175
same,glycan array binding signal (z-score),[23],0.155
same,glycan array binding signal (z-score),[24],1.27
same,glycan array binding signal (z-score),[25],0.992
same,glycan array binding signal (z-score),[26],-0.957
same,glycan array binding signal (z-score),[27],0.393

# Retrieved one by one from the list above (two):
binder,measurement,setting,value
Blon0732mut (Bifidobacterium longum) (protein) MPTSEHKADDATRHLTLIPAPVTLEYTHGTALIGPLVTIEDADQSWETLPIEQLSDELRHRYGVTVLRRRTHGTVISLGLDSRLAHDEYTLDVSESEGIRVRGGGESGLRYGLQTLRQIIGQTSRAIPCLHIQDKPAFAVRAYSLDVTRGRVPTMEFLTWFVDQLALYKYNQFQLYVEHAFAFVELSEAWRGTDPLTAADITYLDEYCARRGIELVPSLATFGHMYMNLRTREHRGLGEFPEDADRPFSFIERMEHHTLNAADPKAHDFASRLIEEYAPLFRSKSFNIGGNETFDLGRGRSAQDAPEAGRDELYAGFVRDLCETLARHGRQPMLWADIALESPRTMDLLPGDITMLNWMYEPQIDESKIQTIATQGRRQFVCPAVRAWSRFFPDYAGAWLNTYHMALAGTKYDAEGMVVTDWGDYGHVNDPRLSVPGLCYGAQNAWNPIEIDAHEMNRRISALVYGDESGRIMDCLARIDSDGVSFPWDLAVQVLELEYGSGTGALNMDVAACMERSSGGKLTLDRTLGCDDARRRMLQWNRERIERRRDCDQVLRDCGDAFAGLDKGGLTAEFLSVMLDGQRLFNELGEELLALADGKDVGSGANRLAADLELWFERYRAQWLSVGRHAELARIAHVVWSLADILRRGAL,glycan array binding signal (z-score),[14],-0.73
same,glycan array binding signal (z-score),[24],1.27

# — the supplement of paper PMC8728848
